# From PubChem BioAssay (Tox21)
# Amino acid sequences for entries named in this document (tags omitted). A change or cut given only in a name is not applied to a line headed by its entry.
# UniProt P11473: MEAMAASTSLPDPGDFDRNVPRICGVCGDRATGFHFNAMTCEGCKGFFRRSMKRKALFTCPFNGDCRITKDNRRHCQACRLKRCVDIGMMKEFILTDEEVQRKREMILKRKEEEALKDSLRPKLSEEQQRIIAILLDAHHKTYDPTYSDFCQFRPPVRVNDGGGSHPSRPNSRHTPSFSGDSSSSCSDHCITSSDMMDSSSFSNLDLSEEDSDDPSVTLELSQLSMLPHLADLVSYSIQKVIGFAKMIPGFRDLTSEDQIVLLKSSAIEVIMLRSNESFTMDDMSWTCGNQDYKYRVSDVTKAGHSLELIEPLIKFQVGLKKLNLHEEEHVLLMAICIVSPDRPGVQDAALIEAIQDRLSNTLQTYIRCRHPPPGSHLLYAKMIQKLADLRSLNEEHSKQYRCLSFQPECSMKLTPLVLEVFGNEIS
# Several values for one entry are separate records, joined by “and”; a condition that tells them apart may be missing. Equal values may be shown once. The shares of active, inactive and inconclusive entries below differ from those in the screen. Where the call is inconclusive, the potency comes from a doubtful curve fit. More than one record can exist for a structure, and the calls need not agree. Activity calls are given as the source filed them. Unless noted, calls follow the shape of the dose curve; as a rule, active = well fitted cell-killing curve with a large enough effect in the repeat runs; inconclusive = weak or mixed curves, or effect the other way; inactive = no such curve, though single readings can be large or run the other way.
# Biological target: Vitamin D3 receptor (Homo sapiens) (UniProt P11473)
# Experiment: qHTS assay to identify small molecule antagonists of the vitamin D receptor (VDR) signaling pathway (AID 743223; active = well fitted inhibition curve with a large enough effect in the signal ratio in the repeat runs, not every such curve was filed as active; inconclusive = weak or mixed curves, or effect the other way; inactive = no such curve, though single readings can be large or run the other way; the % refers to the signal ratio; as to activity change, negative = inhibition: % is scaled to controls: 0 for no effect and ±100 for the full control effect)
# Conditions: VDR-UAS-bla HEK293T, beta-lactamase FRET ratio, 16 h; activity change, negative = inhibition: at 61 µM (top of the series) unless noted
# Summary of the method: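 Beta-lactamase activity in VDR-bla cells is measured by FRET substrate fluorescence (2 h, room temperature) after cells spend 16 h at 37C with test compound and 3 nM final 1alpha,25-dihydroxyvitamin D3.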
# Potency is read from the fitted curve at half-maximal effect.
Compound,Potency,"activity change, negative = inhibition"
CC(C)(C)CC(C)(C)c1ccccc1O,active: 43.9 µM,–
Cc1ccc2nc(-c3ccc(N)cc3)sc2c1S(=O)(=O)O,"inconclusive: 30.4 µM [fluorescent, partial curve, poor fit]",–
C=C1C(CCl)(CCl)C2(Cl)C(Cl)C(Cl)C1(Cl)C2(Cl)Cl (stereo not drawn),inconclusive: 60.9 µM [single point],–
CCc1cc(Cc2cc(CC)cc(C(C)(C)C)c2O)c(O)c(C(C)(C)C)c1,active: 17.4 µM,–
CN(C)c1ccc(SC#N)cc1,"inconclusive: 49 µM [rising, partial curve, poor fit]",–
CCCCCCCCCCCCc1ccc(O)cc1,active: 13.8 µM,–
CCCCCCCCCOC(=O)c1ccc(O)cc1,–,inconclusive: -17.2%
CC1=C(/C=C/C(C)=C/C=C/C(C)=C\C=O)C(C)(C)CCC1,inconclusive: 52 µM,–
Clc1ccc2n[nH]nc2c1,"inconclusive: 43.6 µM [inhibitor, partial curve]",–
CC(=O)c1ccc(S(=O)(=O)NC(=O)NC2CCCCC2)cc1,–,inconclusive: 1.82%
CCCCCCCCCCCCN1CCCC1=O,"inconclusive: 0.0155 µM [inhibitor, full curve, poor fit]",–
C=CC(=O)OCC(CO)(COCC(COC(=O)C=C)(COC(=O)C=C)COC(=O)C=C)COC(=O)C=C,active: 2.72 µM,–
C=CC(=O)OCCOCCOCCOCCOC(=O)C=C,inconclusive: 55.2 µM and inconclusive: 61.1 µM [single point],–
CN[C@H]1CC[C@@H](c2ccc(Cl)c(Cl)c2)c2ccc(S(N)(=O)=O)cc21,inconclusive: 49 µM [partial curve],–
O=c1n(CC2CO2)c(=O)n(CC2CO2)c(=O)n1CC1CO1 (stereo not drawn),"inconclusive: 54.6 µM [fluorescent, single point] and inconclusive: 12.3 µM [activator, partial curve]",–
C[C@H]1O[C@@H](O[C@H]2CC[C@@]3(C)[C@H](CC[C@@H]4[C@@H]3C[C@@H](O)[C@]3(C)[C@@H](C5=CC(=O)OC5)CC[C@]43O)C2)C[C@H](O)[C@@H]1O[C@H]1C[C@H](O)[C@H](O[C@H]2C[C@H](O)[C@H](O[C@@H]3O[C@H](CO)[C@@H](O)[C@H](O)[C@H]3O)[C@@H](C)O2)[C@@H](C)O1,"inconclusive: 2.13 µM [rising, partial curve]",–
CCC(C)(C)c1cc(O)c(C(C)(C)CC)cc1O,–,inconclusive: 0.317%
COc1cc(-c2nc(NC(=O)c3cc4cc(C)cc(C)c4n3CC(=O)O)sc2CCC2CCCCC2)c(OC)cc1Cl,"inconclusive: 11.3 µM [rising, full curve]",–
CCCCC(CC)CN=C(N)NC(N)=NCCCCCCN=C(N)NC(N)=NCC(CC)CCCC (stereo not drawn),"inconclusive: 23.9 µM [inhibitor, partial curve]",–
CN(C)C(=O)C1(N2CCCCC2)CCN(CC[C@@]2(c3ccc(Cl)c(Cl)c3)CN(C(=O)c3ccccc3)CCO2)CC1,"inconclusive: 18.2 µM [rising, single point]",–
[Cl][Bi]([Cl])([c]1ccccc1)([c]1ccccc1)[c]1ccccc1,"inconclusive: 1.54 µM [rising, partial curve]",–
C[C@@H](NCCCc1cccc(C(F)(F)F)c1)c1cccc2ccccc12,inconclusive: 26.8 µM,–
CCCCCCCCCCCCCCCCCC[N+](C)(C)C,"inconclusive: 21.9 µM [rising, single point]",–
CCN(CC)C(=S)SSC(=S)N(CC)CC,–,inconclusive: -62.2%
CC(O)(c1ccc(Cl)cc1)c1ccc(Cl)cc1,–,inconclusive: -48.4%
Cc1cc(F)ccc1-c1cc(N2CC[C@@H](O)[C@H]2CO)ncc1N(C)C(=O)C(C)(C)c1cc(C(F)(F)F)cc(C(F)(F)F)c1,active: 21.5 µM,–
C[C@]12CC[C@@H]3c4ccc(O)cc4CC[C@H]3[C@@H]1CC[C@@H]2OC(=O)CCC1CCCC1,inactive,–

# Single records, from the list above.
# C=CC(=O)OCC(CO)(COCC(COC(=O)C=C)(COC(=O)C=C)COC(=O)C=C)COC(=O)C=C is entered as Potency: active: 2.72 µM
# CN(C)c1ccc(SC#N)cc1 is entered as Potency: inconclusive: 49 µM [rising, partial curve, poor fit]
# C=C1C(CCl)(CCl)C2(Cl)C(Cl)C(Cl)C1(Cl)C2(Cl)Cl (stereo not drawn) is entered as Potency: inconclusive: 60.9 µM [single point]

# Test system: not listed separately
# Experiment: qHTS assay to identify small molecule agonists of the vitamin D receptor (VDR) signaling pathway - cell viability counter screen (AID 743224); also: nearly all actives have a fitted effect of over 50% in size
# Conditions: VDR-bla HEK293T viability, CellTiter-Glo luminescence, 16 h; activity change, negative = cytotoxicity: at 62.6 µM (top of the series) unless noted
# Summary of the method: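 Cells: VDR-bla, 2,000/well, settled 4 h. Treatment: compounds in DMSO, 16 h, 37C/5% CO2. Readout: CellTiter-Glo luminescence after 30 min RT.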
row,Compound,Potency
1,CC(C)(C)CC(C)(C)c1ccccc1O,active: 19.6 µM
2,CCCCCC(=O)O[C@]1(C(C)=O)CC[C@H]2[C@@H]3CCC4=CC(=O)CC[C@]4(C)[C@H]3CC[C@@]21C,active: 43.4 µM
3,O=C(CCCCCCCCc1cccnc1)N1CCC(C=C(c2ccccc2)c2ccccc2)CC1,"inconclusive: 4.9 µM [cytotoxic, full curve, poor fit]"
4,CCCCCCCCCOC(=O)c1ccc(O)cc1,active: 17.1 µM
5,CCC(C)(C)c1ccc(CC(C)CN2C[C@@H](C)O[C@@H](C)C2)cc1 (stereo partly drawn),"inconclusive: 33.5 µM [cytotoxic, single point]"
6,C=CC(=O)OCCOCCOCCOCCOC(=O)C=C,"inconclusive: 55.2 µM [cytotoxic, single point] and inconclusive: 54.4 µM [cytotoxic, single point]"
7,CN[C@H]1CC[C@@H](c2ccc(Cl)c(Cl)c2)c2ccc(S(N)(=O)=O)cc21,active: 17.4 µM
8,O=c1n(CC2CO2)c(=O)n(CC2CO2)c(=O)n1CC1CO1 (stereo not drawn),"inconclusive: 30.7 µM [cytotoxic, partial curve, poor fit]"
9,C[C@H]1O[C@@H](O[C@H]2CC[C@@]3(C)[C@H](CC[C@@H]4[C@@H]3C[C@@H](O)[C@]3(C)[C@@H](C5=CC(=O)OC5)CC[C@]43O)C2)C[C@H](O)[C@@H]1O[C@H]1C[C@H](O)[C@H](O[C@H]2C[C@H](O)[C@H](O[C@@H]3O[C@H](CO)[C@@H](O)[C@H](O)[C@H]3O)[C@@H](C)O2)[C@@H](C)O1,active: 0.298 µM
10,CCC(C)(C)c1cc(O)c(C(C)(C)CC)cc1O,"inconclusive: 54.9 µM [cytotoxic, single point]"
11,CCCCC(CC)CN=C(N)NC(N)=NCCCCCCN=C(N)NC(N)=NCC(CC)CCCC (stereo not drawn),active: 23.7 µM
12,Cc1ccc(-c2cc(C(F)(F)F)nn2-c2ccc(S(N)(=O)=O)cc2)cc1,"inconclusive: 54.7 µM [cytotoxic, single point] and inconclusive: 54.9 µM [cytotoxic, single point]"
13,CC(CN1c2ccccc2Sc2ccccc21)N(C)C (stereo not drawn),"inconclusive: 26.6 µM [cytotoxic, partial curve]"
14,CCN(CC)C(=S)SSC(=S)N(CC)CC,active: 110 nM and active: 39.8 nM and active: 188 nM
15,CC(O)(c1ccc(Cl)cc1)c1ccc(Cl)cc1,"inconclusive: 38.9 µM [cytotoxic, partial curve]"
16,C[C@]12CC[C@@H]3c4ccc(O)cc4CC[C@H]3[C@@H]1CC[C@@H]2OC(=O)CCC1CCCC1,active: 43.6 µM
